Among the data in patent US20140099332A1 (IMMUNOGEN, published 2014) are binding values, retold here.

Sequences of proteins named here, by UniProt entry; tags and fusion partners are left off. A change or cut given only in a name is not applied to a line headed by its entry.
UniProt P15328: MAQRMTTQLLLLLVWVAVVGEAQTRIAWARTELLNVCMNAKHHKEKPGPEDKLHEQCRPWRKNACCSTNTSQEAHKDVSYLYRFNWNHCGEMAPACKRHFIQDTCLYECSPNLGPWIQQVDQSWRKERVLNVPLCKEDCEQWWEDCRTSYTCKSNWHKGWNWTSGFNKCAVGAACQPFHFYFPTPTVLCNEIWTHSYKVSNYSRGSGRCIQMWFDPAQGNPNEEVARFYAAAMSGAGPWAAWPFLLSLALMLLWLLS

These are yes or no findings as the source states them, for the method shown. Some results given as binding are weak or reduced against the parent protein; the word gives no strength.

For assay [1], the target named is FOLR1 (antigen of the screening ELISAs, form not stated) (human) (UniProt P15328). Nature of the assay: competition ELISA: serial concentrations of competing murine clone against a constant concentration of (biotinylated) muFR1-13.
Assay [2] shares this target. Nature of the assay: sandwich ELISA.
The target of assay [3] is T1, human FolR1-Fc fusion protein (human; mouse, UniProt P15328 25-233).
T1 construct: The construct encodes the 233 amino acids from the N-terminal signal peptide to just upstream of the GPI linkage site; also called huFOLR1-Fc; human folate receptor 1 Fc fusion molecule; not shown: residues encoded by the Pst1 to BamHI oligonucleotide linker
Nature of the assay: FOLR1 sandwich ELISA of Example 7, serially diluted Folr1-Fc (30nM) standard; x axis is a dilution step, no concentration.

The target in assay [4] is T1, human FolR1-Fc fusion protein. Nature of the assay: sandwich ELISA (FOLR1 ELISA): clone coated on the plate as capture antibody, FOLR-Fc fusion titrated, format as in FIG. 1. As for the experimental part: The 40 clones were alternatively coated onto the assay plate in place of muFR1-9 in the diagram, and the resulting binding curves were analyzed shown in FIG. 5. Antibodies that contained the lowest half-maximal response (EC50) were considered to have the highest binding specificity to FOLR1, and thus were chosen as the top candidates for the assay.

For assay [5] the target is unchanged. Nature of the assay: sandwich ELISA, FR1-9 capture and biotinylated FR1-13 detection; 60nM FOLR1-Fc sample serially diluted.
For assay [6] the target is unchanged. Nature of the assay: sandwich ELISA, muFR1-9 capture and biotinylated muFR1-13 detection.

B1: muFR1-13 (antibody, mouse IgG2b, kappa, V domains shown)
VH: QVQLKESGPDLVAPSQSLSITCTVSGFSLSRYSVHWIRQPPGKGLEWLGMIWSGGNTDYNSVFKSRLNITKDNSKSQVFLKMNSLQTDDTAIYYCATFDGKVSWFAYWGQGTLVTVSA
VL: SIVMTQTPKFLLVSTGDRFTITCKASQSVSNDVLWYQQKPGQSPKLLIYYAYNRYSGVPDRFTGSGYGTDFTFTITTVQSEDLAVYFCQQDHSSPFTFGSGTKLEIKR
notes: Murine monoclonal purified from hybridoma supernatant; also called muFR1-13b (biotinylated); Biotinylated FR1-13
For the molecule B1, the binding result in assay [1] is “binds”.

B2: muFR1-62 (antibody, mouse IgG1, kappa, V domains shown)
VH: QVQLQQSGAELARPGASVKMSCKASGYTFTTYTMHWVKQRPGQGLEWIAYINPTSGYNNYNQKFKEKATLTADKSSSTAYMQLTSLTSEDSAVYYCASGGAYGRRPVDYWGQGTSVTVSS
VL: DIVMTQSQKFMSISVGDRVSVTCKASQNVGTNVAWYQQKPGQSPKTLIYSASSRYSGVPDRFTGSGSGTDFTLTISNVQSEDLADYFCHQYNSYPYTFGGGTKLEIKR
notes: Murine monoclonal; The full-length light chain differs from the VL by shifted residues
In the case of B2, the binding entry in assay [2] is reported as “binds”.

B3: muFR1-9 (antibody, mouse IgG1, kappa, V domains shown)
VH: QVQLVESGGGLVQPGGSRKLSCAASGFTFSSFGMHWVRQAPEKGLEWVAYISSGSSTFYYADTVKGRFTISRDNPKNTLFLQMTSLRSEDTAMYYCAKELTGTFAYWGQGTLVTVSA
VL: DIVLTQSPATLSVTPGDSVSLSCRASQSINNNLHWYQQKSHESPRLLIKYASQSISGIPSRFSGSGSGTDFTLSINSVETEDFGMYFCQQSNSWPQVTFGAGTKLELKR
notes: Murine monoclonal purified from hybridoma supernatant; Capture antibody of the sandwich ELISA; also called murine FR1-9
Regarding B3, the binding entry in assay [3], in assay [4], in assay [5], in assay [2] and in assay [6] was “binds” throughout.

B4: muFR1-53 (antibody, mouse IgG1, kappa, V domains shown)
VH: QVQLQQSGPELVRPGASVKMSCKASGYKFTDYDISWVLQRTGQGLEWIGEIYPGSGRTYYNERFKGKATLTADKSSNTVYMQLSSLTSEDSAVYFCASSYYYGTNSPFAYWGQGTTLTVSS
VL: DIQMTQTTSSLSASLGDRVTISCRASQDISNYLHWYQRKPDGTVKLLVYYTSRLQSGVPSRFSGSGSGTDYSLTISNLEQEDIATYFCQQGNSLPPTFGSGTKLEIKR
notes: The full-length chains differ from the variable domains by shifted residues
As for B4, the binding entry in assay [2] was “binds”.
